Test results from publication PMC9456107, “DNA Motifs and an Accessory CRISPR Factor Determine Cas1 Binding and Integration Activity in Sulfolobus islandicus”.
These are yes or no findings as the source states them, for the method shown. For some assays here: Binding can be weak; no strength is given. Where a sequence is shown, tags or fusion partners need not be part of it.

What was measured:
[1] = target: T1, Cas1 protein with C-terminal His tag (S. islandicus REY15A) (UniProt F0NGP4); assay: native gel or EMSA; EMSA with the wildtype leader-proximal probe: 1.2 μM Cas1 with increasing amounts of Csa3a (0.6, 1.2 and 2.4 μM); super shifts and a well shift; both purified
T1 sequence: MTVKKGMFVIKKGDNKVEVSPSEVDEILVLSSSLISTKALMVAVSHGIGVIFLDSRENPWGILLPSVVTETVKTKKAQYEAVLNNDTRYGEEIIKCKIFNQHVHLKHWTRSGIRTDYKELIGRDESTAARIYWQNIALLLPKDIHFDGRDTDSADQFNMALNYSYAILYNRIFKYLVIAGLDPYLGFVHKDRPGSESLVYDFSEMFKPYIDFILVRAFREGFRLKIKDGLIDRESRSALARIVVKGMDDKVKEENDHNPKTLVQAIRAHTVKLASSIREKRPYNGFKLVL

[2] = target: T1, Cas1 protein with C-terminal His tag (S. islandicus REY15A); assay: cross-linking; 10 μg each of purified Csa3a and Cas1 in 20 mM HEPES-NaOH pH 7.6, 500 mM NaCl, 5% glycerol, 20 min at 40 °C; 1 mM BS3, room temperature 1 h; trypsin digest, LC-MS, XLinkX; both purified
[3] = target: His-tagged Csa3a (S. islandicus REY15A); assay: pull-down; His-tag pull-down: equal amounts of purified GST-Cas1 or GST and Csa3a-His mixed with Ni-NTA agarose beads, 1 h at 4 °C; wash 20 mM HEPES-NaOH pH 7.6, 500 mM NaCl, 20 mM imidazole; elution 500 mM imidazole; SDS-PAGE, Coomassie staining; both purified
[4] = target: His-tagged Csa3a (S. islandicus REY15A); assay: native gel or EMSA; EMSA with 5'-end HEX-labeled leader-distal motif dsDNA (P2): Csa3a with increasing amounts of Cas1; further retarded band; both purified
[5] = target: His-tagged Csa3a (S. islandicus REY15A); assay: condition: only with the leader-proximal motif DNA (P1) added beside the leader-distal motif DNA (P2); native gel or EMSA; EMSA with P2, Csa3a and Cas1, with increasing amounts of 5'-end FAM-labeled leader-proximal motif ssDNA (P1) added as the competitor for Cas1 binding; both purified

For His-tagged Csa3a (S. islandicus REY15A), the binding [1] was “binds” and the binding [2] was “binds”.

B1: GST-tagged Cas1 (protein, UniProt F0NGP4 1-290)
chain: T1 sequence
B1 was tested, and the binding [3] was “binds”.

B2: Cas1 protein with C-terminal His tag (protein, UniProt F0NGP4 1-290)
chain: T1 sequence
B2 was tested, and the binding [4] was “binds” and the binding [5] was “no binding”.
